Experimental data published in PMC12584684, “A minimal SufB2C2 complex functions as a [4Fe-4S] cluster scaffold in methanogenic archaea” (Microbiology Spectrum, 2025).

Amino acid sequences for entries named in this document (tags omitted). A change or cut given only in a name is not applied to a line headed by its entry.
UniProt Q6LX00: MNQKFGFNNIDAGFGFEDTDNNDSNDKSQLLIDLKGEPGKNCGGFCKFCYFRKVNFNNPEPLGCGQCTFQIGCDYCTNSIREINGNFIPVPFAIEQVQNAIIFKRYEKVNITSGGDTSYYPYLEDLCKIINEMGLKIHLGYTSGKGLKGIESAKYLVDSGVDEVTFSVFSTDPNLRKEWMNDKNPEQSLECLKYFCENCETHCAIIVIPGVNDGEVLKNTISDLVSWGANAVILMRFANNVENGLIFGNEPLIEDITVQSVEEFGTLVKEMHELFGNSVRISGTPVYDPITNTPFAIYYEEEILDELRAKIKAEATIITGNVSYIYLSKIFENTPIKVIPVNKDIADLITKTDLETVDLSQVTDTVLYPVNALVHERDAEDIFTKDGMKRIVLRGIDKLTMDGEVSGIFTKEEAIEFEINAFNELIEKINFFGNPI
UniProt Q6LY25: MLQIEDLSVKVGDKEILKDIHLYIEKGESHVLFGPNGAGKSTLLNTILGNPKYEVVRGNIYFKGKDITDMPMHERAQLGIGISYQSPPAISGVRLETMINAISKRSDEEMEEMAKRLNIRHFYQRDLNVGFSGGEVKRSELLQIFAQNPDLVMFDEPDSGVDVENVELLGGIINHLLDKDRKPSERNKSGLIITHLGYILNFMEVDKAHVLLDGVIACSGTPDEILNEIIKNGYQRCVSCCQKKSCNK
UniProt Q6LY24: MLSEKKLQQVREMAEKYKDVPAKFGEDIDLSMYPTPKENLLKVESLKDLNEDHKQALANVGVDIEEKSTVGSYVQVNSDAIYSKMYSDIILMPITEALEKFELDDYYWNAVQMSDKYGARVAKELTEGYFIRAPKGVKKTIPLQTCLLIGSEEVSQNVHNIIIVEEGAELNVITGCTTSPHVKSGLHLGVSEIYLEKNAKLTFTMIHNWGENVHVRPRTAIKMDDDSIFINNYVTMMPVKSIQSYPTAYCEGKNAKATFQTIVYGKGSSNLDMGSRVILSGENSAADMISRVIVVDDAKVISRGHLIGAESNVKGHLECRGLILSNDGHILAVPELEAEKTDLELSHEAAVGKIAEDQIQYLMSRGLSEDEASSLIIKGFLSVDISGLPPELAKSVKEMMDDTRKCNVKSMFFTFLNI

Molecular target: FLAG3-Strep2-tagged methanogenesis marker protein 10 (MmpX) (Methanococcus maripaludis) (UniProt Q6LX00)
Test: affinity purification with mass spectrometry; TAP-tagged (3×FLAG, Twin-Strep) MmpX purified from M. maripaludis; SDS-PAGE (Coomassie), identities of the bands confirmed by mass spectrometry

binding	Substance
binds	native Methanococcus maripaludis SufC (from UniProt Q6LY25)
binds	Methanococcus maripaludis SufB (from UniProt Q6LY24)

Results are given in words; binding and its absence hold for the method and conditions named. Binding seen in cells or lysates may run through a third protein. These calls come from enrichment with a bait or labelling near it, and not all partners need be listed.
